{"source": "patent US9434610B2", "about": "“HPMA—docetaxel conjugates and uses therefore” (REXAHN PHARMACEUTICALS, INC., priority 2008, dated 2016)", "origin": "cited, not measured here", "details": "cited from earlier work", "data": [{"smiles": "CC(=O)O[C@@]12CO[C@@H]1C[C@H](O)[C@@]1(C)C(=O)[C@H](O)C3=C(C)[C@@H](OC(=O)[C@H](O)[C@@H](NC(=O)OC(C)(C)C)c4ccccc4)C[C@@](O)([C@@H](OC(=O)c4ccccc4)[C@H]21)C3(C)C", "note": "[Docetaxel]", "values": [{"measurement": "solubility in water", "result": "practically insoluble in water"}]}]}
